# According to article PMC11211510, “Sequence-specific dynamic DNA bending explains mitochondrial TFAM’s dual role in DNA packaging and transcription initiation”:
# The exact form of at least one protein or probe is not confirmed. For part of these data: A weaker result is weaker than the reference pair of the same experiment. At least one verdict was read from the data and is not stated in words by the source. Protein sequences can lack the tags named with them.
# Experiments:
# [1] = target: T1, TFAM-ΔC26 (C-tail deletion) (UniProt Q00059); test: PIFE (single-molecule); conditions: 50 mM Tris acetate pH 7.5, 100 mM Na glutamate, 50 mM NaCl, 10 mM Mg acetate, 0.5 mM TCEP, 0.01% Tween 20, 0.1 mg/ml BSA, 25 °C; 5 nM DNA, 0-75 nM TFAM; recombinant protein; residues 43-220; protein details: SUMO fusion, cleaved; label: Cy3 at 5' end of template or non-template strand
# T1 sequence (looked up): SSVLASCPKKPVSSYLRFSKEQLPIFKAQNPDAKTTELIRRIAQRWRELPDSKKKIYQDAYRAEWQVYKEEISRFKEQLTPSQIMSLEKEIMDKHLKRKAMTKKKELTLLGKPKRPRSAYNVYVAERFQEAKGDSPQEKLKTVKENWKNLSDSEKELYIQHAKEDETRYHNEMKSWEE
# [2] = target: T1, TFAM-ΔC26 (C-tail deletion); test: smFRET; conditions: biotin-2xPEG18 at 3' end of template; 50 mM Tris acetate pH 7.5, 100 mM Na glutamate, 50 mM NaCl, 10 mM Mg acetate, 0.5 mM TCEP, 0.01% Tween 20, 0.1 mg/ml BSA, 25 °C; 5 nM DNA, 0-75 nM TFAM; recombinant protein; residues 43-220; protein details: SUMO fusion, cleaved
# [3] = target: T1, TFAM-ΔC26 (C-tail deletion); test: fluorescence anisotropy; conditions: discrimination for LSP lost, Kd only in Fig. 4J; 50 mM Tris acetate pH 7.5, 100 mM Na glutamate, 50 mM NaCl, 10 mM Mg acetate, 0.5 mM TCEP, 0.01% Tween 20, 0.1 mg/ml BSA, 25 °C; 5 nM DNA, 0-75 nM TFAM; recombinant protein; residues 43-220; protein details: SUMO fusion, cleaved; label: fluorescein (FITC) at 3' end of template strand
sequence,measurement,setting,value
"TGTGTTAGTTGGGGGGTGACTGTTAAAAGT (double strand) [LSP, Cy3]",binding result,[1],binds
"TGTGTTAGTTGGGGGGTGACTGTTAAAAGT (double strand) [LSP, Atto565/Atto647N]",binding result,[2],binds
"TGTGTTAGTTGGGGGGTGACTGTTAAAAGT (double strand) [LSP (-41 to -12), fluorescein]",binding result,[3],binds more weakly
